In PubChem BioAssay AID743255 (National Center for Advancing Translational Sciences (NCATS), 2014):
The whole screen tested about 390,000 compounds, of which about 910 (0.23%) were called active. The inconclusive results got no clear call from the source; some entries with a clear call stand among them for comparison. The call rests on the fitted dose curve; in most records, active means well fitted inhibition curve with a large enough effect; inconclusive means small, poorly fitted or top-dose-only effect; inactive means no such curve, though single readings can be large or run the other way. Where the call is inconclusive, the potency comes from a doubtful curve fit.

The chains behind the UniProt entries cited, without tags or fusion partners. Where a name states a change or a piece, a line headed by the entry shows the natural chain unless it says otherwise.
UniProt O94782: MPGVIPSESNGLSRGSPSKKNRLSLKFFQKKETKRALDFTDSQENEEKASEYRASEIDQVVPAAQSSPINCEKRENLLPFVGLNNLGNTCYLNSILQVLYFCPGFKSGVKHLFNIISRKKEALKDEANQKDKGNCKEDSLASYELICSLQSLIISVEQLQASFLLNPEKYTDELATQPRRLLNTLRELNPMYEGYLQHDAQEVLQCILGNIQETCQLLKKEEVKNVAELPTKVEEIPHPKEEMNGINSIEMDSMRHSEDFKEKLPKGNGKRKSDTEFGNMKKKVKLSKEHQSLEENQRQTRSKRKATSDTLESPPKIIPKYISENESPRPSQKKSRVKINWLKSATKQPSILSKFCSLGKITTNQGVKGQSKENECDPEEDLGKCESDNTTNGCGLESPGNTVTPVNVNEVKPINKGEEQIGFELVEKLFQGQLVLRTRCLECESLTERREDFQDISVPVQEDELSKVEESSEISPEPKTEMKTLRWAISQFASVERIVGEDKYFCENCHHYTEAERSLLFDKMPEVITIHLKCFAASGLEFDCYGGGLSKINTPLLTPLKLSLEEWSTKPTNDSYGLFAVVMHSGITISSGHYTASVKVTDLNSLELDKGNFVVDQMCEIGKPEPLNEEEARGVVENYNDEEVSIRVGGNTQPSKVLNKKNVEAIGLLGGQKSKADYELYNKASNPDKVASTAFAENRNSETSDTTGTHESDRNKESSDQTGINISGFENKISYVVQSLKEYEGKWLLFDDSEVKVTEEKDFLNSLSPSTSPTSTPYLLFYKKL

Target: Ubiquitin carboxyl-terminal hydrolase 1 (Homo sapiens) (UniProt O94782)
Test: Inhibitors of USP1/UAF1: Primary Screen; further: nearly all actives have a fitted effect of over 60% in size
Details: recombinant USP1/UAF1, Ub-Rhodamine cleavage fluorescence; activity change, negative = inhibition: at 57.1 µM (top of the series)
In short: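 1 nM enzyme complex + cpd, 15 min RT; start with Ub-Rho 150nM final; kinetic fluorescence ex 480/em 540, 6 reads q60 s. Buffer 50mM HEPES pH 7.8, 0.5mM EDTA, 0.1 mg/ml BSA, 1mM TCEP, 0.01% Tween-20.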
On the % scale 0 is the no-effect control and ±100 the full control effect; potency means the concentration at half of the fitted maximal effect.

SMILES | Potency | activity change, negative = inhibition
CCOc1ccccc1NC(=O)Cn1c(=O)ccc2cc(S(=O)(=O)N3CCC(C)CC3)ccc21 | inconclusive: 17.8 µM [inhibitor, single point] | 
CC(C)Nc1nc(NC2CCCC2)nc(N2CCOCC2)n1 |  | inactive: -23.7%
COc1ccc(OCC(O)CN2CCN(Cc3ccc4c(c3)OCO4)CC2)cc1 (centres undefined) |  | inactive: -2.2%
CC(=O)Nc1ccc(NC(=O)C(C)OC(=O)C2CCC2)cc1 (centres undefined) |  | inactive: 0.548%
COc1ccccc1CNC(=O)C(=O)NCC(c1ccco1)S(=O)(=O)c1cccs1 (centres undefined) | inconclusive: 5.01 µM [inhibitor, partial curve] | 
COc1cccc(N=Nc2ccc3ccccc3c2O)c1 |  | inactive: -13.3%
CN1N=C(C(F)(F)F)CC1=O |  | inactive: -21.9%
O=C(Nc1nccs1)C(Br)C(Br)c1ccccc1 (centres undefined) |  | inconclusive: -38% [inhibitor]
O=C(CSc1nc2ccccc2[nH]1)NCc1ccco1 | inconclusive: 22.4 µM [inhibitor, partial curve] | 
O=C(NC1CCCCC1)c1cc(Nc2cccc(C(F)(F)F)c2)nc2ccccc12 |  | inactive: -14.2%
COc1cc(C(=O)Nc2nc3nc(-c4ccccc4)cc(=O)n3[nH]2)cc(OC)c1OC |  | inactive: 2.4%
O=C(NC12CC3CC(CC(C3)C1)C2)N1CCN(C(=O)C2CCCO2)CC1 (centres undefined) | inconclusive: 0.708 µM [inhibitor, full curve, poor fit] | 
Cc1cccc(-n2ncc3c(Nc4ccc(Oc5ccc(Cl)cc5)cc4)ncnc32)c1 | inconclusive: 50.1 µM [inhibitor, partial curve, poor fit] | 
COc1cc(-c2nc3nc[nH]n3c2Nc2ccc(C(C)C)cc2)ccc1O | inconclusive: 35.5 µM [inhibitor, partial curve] | 
CCc1nn(-c2ccccc2)c2nc(-c3cccc(OC)c3)c3cc(OC)c(OC)cc3c12 |  | inactive: -27.4%
O=c1ccc(-c2nc3ccccc3n2Cc2ccc(Cl)cc2)c[nH]1 |  | inactive: -21%
CCOC(=O)C1CCN(C(=O)Cn2c(=O)cc(C)c3c(C)nn(C)c32)CC1 |  | inactive: 0.733%
Cc1oc2ncn(CC(C)C)c(=O)c2c1C(=O)N1CCN(c2cccc(C(F)(F)F)c2)CC1 | inconclusive: 50.1 µM [inhibitor, partial curve, poor fit] | 
Cc1ccc(C)n1-c1c(C(=O)NCCC(C)C)sc2ncccc12 |  | inconclusive: -15.9% [inhibitor]
CCN(CC)S(=O)(=O)c1ccc(NC(=O)c2cccs2)cc1 |  | inactive: 1.29%
COc1cc(NC(=O)CSc2nnc(-c3ccncc3)n2C2CCCCC2)ccc1NC(=O)c1ccco1 | inconclusive: 44.7 µM [inhibitor, partial curve, poor fit] | 
CCc1ccc(C(=O)c2cn(CC(=O)NCCc3ccc(OC)c(OC)c3)c3nc(C)ccc3c2=O)cc1 |  | inactive: -1.27%

Part of the list above in order of heavy-atom count, low to high:
SMILES | Potency | activity change, negative = inhibition
CC(=O)Nc1ccc(NC(=O)C(C)OC(=O)C2CCC2)cc1 (centres undefined) |  | inactive: 0.548%
CCOC(=O)C1CCN(C(=O)Cn2c(=O)cc(C)c3c(C)nn(C)c32)CC1 |  | inactive: 0.733%
CCc1ccc(C(=O)c2cn(CC(=O)NCCc3ccc(OC)c(OC)c3)c3nc(C)ccc3c2=O)cc1 |  | inactive: -1.27%

(further entries)

SMILES | Potency | activity change, negative = inhibition
O=C(c1ccc(N2CCOCC2)c([N+](=O)[O-])c1)N1CCN(Cc2ccccc2)CC1 | inconclusive: 11.2 µM [inhibitor, partial curve] | 
O=C(Nc1cccc(Cl)c1N1CCCC1)c1ccco1 | inconclusive: 50.1 µM [inhibitor, partial curve, poor fit] | 
O=C(CCc1nc(CN2CCN(S(=O)(=O)c3ccc(F)cc3)CC2)no1)N1CCCCC1 | inconclusive: 8.91 µM [inhibitor, partial curve] | 
Nc1ccccc1N=Nc1ccccc1N | inconclusive: 1.26 µM [inhibitor, full curve, poor fit] | 
COc1ccc(CNC(=O)COC(=O)c2ccc(Br)c(S(=O)(=O)N3CCOCC3)c2)cc1 |  | inactive: -24.8%
CC1Cc2ccccc2N1CC(=O)Nc1cc(S(=O)(=O)N2CCOCC2)ccc1Cl (centres undefined) | inconclusive: 44.7 µM [inhibitor, partial curve, poor fit] | 
COc1ccc2c(/C=N/Nc3ccc(C(=O)O)cc3)c[nH]c2c1 | inconclusive: 31.6 µM [inhibitor, partial curve] | 
COc1ccccc1NC(=O)c1c(Nc2ccccc2F)sc(C(=O)Nc2cccc(Cl)c2)c1N |  | inactive: -6.51%
CCN(CC(=O)Nc1c(F)cccc1F)C(=O)CCN1C(=O)c2cccc([N+](=O)[O-])c2C1=O | inconclusive: 8.91 µM [inhibitor, partial curve, poor fit] | 
O=C(NC1CCCc2c1cnn2-c1ccc(F)cc1F)c1csnn1 (centres undefined) |  | inactive: -17.4%
Cc1ccc(-n2ncc3c(=O)n(-c4ccc(C)c(C)c4)c(-c4ccco4)nc32)cc1 | inconclusive: 25.1 µM [inhibitor, partial curve] | 
CC(C)c1ccc(S(=O)(=O)c2nnn3c2nc(NCCc2ccccc2)c2sccc23)cc1 | inconclusive: 35.5 µM [inhibitor, partial curve] | 
Cc1ccc(-c2cc(C(F)(F)F)n3nc(C(=O)Nc4ccc(Cl)cc4Cl)cc3n2)cc1 |  | inconclusive: -16.3% [inhibitor]
Cn1cc(CN(C(=O)Nc2ccc(Cl)c(Cl)c2)C2CCCCC2)c2ccccc21 |  | inactive: -24.4%
Cc1ccc2nc(-c3ccsc3)c(Nc3ccccc3C)n2c1 | inconclusive: 0.794 µM [inhibitor, full curve, poor fit] | 
Cn1cc(C(=O)NCCc2ccccc2)c(=O)c2cc(S(=O)(=O)N3CCOCC3)ccc21 | inconclusive: 35.5 µM [inhibitor, partial curve] | 
Cc1ccc(N=C2NC(=O)/C(=C/c3cn(C)c4ccccc34)S2)cc1C | inconclusive: 25.1 µM [inhibitor, partial curve] | 
CCn1c2ccc(C)cc2c2nnc(NN)nc21 | inconclusive: 39.8 µM [inhibitor, partial curve, poor fit] | 
Oc1ccccc1-c1cc(C(F)(F)C(F)F)nc(-c2ccccc2)n1 |  | inactive: 3.14%
CCOC(=O)c1[nH]cnc1C(=O)Nc1ccc([N+](=O)[O-])cc1 | inconclusive: 28.2 µM [inhibitor, partial curve, poor fit] | 
Cc1nc(C)c(C(=O)N(c2ccc(C)c(C)c2)C(C(=O)NCc2ccco2)c2ccccc2)s1 (centres undefined) | inconclusive: 0.708 µM [inhibitor, full curve, poor fit] | 
CCOc1cc(-c2ccc(OC(=O)c3ccccc3F)cc2)cc(=O)c2c(C)oc(C)c12 | inconclusive: 35.5 µM [inhibitor, partial curve] | 
